# Percent effect of library compounds

The chains behind the UniProt entries cited, without tags or fusion partners.
UniProt P9WPC5, whole entry: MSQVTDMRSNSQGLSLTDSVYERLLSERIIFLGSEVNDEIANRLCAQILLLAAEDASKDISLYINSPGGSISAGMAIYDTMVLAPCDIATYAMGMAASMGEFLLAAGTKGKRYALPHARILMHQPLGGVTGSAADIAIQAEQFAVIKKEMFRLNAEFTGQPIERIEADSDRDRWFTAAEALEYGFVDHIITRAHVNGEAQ
UniProt P9WPC3, whole entry partner: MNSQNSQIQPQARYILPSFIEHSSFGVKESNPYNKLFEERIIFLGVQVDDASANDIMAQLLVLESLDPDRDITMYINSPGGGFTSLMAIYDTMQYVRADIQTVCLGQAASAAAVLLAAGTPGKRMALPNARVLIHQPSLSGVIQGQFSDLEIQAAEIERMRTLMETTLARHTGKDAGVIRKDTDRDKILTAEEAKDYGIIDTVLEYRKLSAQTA
UniProt I6X8D2, whole entry: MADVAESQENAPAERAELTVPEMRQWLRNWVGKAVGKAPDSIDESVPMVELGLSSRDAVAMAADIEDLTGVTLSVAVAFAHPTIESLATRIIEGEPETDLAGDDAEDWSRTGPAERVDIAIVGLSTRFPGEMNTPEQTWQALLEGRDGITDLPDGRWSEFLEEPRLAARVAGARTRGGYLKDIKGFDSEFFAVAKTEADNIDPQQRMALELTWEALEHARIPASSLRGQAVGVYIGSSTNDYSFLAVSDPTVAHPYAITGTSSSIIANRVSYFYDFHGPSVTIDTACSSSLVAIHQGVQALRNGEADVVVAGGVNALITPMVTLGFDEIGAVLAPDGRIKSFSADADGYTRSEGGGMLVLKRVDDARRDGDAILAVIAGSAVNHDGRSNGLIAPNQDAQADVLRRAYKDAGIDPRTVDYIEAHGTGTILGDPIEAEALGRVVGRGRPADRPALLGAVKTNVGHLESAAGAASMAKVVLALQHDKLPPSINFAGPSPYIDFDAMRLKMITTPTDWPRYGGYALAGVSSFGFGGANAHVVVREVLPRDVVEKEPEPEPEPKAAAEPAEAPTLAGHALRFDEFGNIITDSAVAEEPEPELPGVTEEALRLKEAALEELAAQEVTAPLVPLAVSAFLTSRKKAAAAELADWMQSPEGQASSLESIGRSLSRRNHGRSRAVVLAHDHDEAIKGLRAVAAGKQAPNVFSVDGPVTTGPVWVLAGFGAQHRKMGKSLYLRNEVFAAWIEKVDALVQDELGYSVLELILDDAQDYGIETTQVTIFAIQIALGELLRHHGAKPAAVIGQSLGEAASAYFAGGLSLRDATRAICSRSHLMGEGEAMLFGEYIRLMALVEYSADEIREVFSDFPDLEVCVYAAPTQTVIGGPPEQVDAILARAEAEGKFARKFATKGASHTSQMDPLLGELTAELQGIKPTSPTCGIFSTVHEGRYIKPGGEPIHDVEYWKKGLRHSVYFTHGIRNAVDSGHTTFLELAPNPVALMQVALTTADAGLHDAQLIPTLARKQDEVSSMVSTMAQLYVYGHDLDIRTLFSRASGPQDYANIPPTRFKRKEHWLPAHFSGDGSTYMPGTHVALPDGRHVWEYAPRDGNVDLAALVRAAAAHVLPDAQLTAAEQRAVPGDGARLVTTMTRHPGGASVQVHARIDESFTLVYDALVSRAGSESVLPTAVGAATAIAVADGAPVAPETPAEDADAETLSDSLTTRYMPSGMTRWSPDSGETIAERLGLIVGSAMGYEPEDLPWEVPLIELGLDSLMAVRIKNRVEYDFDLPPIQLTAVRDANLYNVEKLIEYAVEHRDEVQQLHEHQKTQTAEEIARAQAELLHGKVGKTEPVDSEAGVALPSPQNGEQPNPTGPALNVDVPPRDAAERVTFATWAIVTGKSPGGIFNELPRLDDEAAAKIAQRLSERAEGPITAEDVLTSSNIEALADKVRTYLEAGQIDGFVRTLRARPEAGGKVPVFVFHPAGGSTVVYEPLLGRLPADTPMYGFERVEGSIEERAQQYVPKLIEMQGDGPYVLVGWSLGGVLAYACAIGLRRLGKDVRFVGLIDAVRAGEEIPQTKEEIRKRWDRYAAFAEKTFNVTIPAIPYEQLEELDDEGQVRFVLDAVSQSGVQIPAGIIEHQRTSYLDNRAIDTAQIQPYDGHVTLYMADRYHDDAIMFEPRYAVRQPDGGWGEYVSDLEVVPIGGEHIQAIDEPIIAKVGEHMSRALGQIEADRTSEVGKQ

The values are deposited in ChEMBL (CHEMBL3988442, “University of Dundee, Small-Polar-MMV Screening Library” (2021)).

A: 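ClpP1P2, Mycobacterium tuberculosis (UniProt P9WPC5 and UniProt P9WPC3). Protease assay of ClpP1P2, read by the AMC dye that it sets free. Compounds at 50 µM. Direction is inferred from only a few compounds that gave an IC50; most scored high, so higher reads as stronger inhibition. Most other retested compounds had strongly negative values. Of about 69,000 compounds tested this way, about 10 (0.015%) reached 50% or more in at least one test.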
B: 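Polyketide synthase Pks13, Mycobacterium tuberculosis (UniProt I6X8D2). Enzyme assay of the thioesterase domain of polyketide synthase 13; the read-out is not stated. Compounds at 30 µM. Higher reads as stronger inhibition (inferred from which compounds were picked for retests). About 67,000 compounds were tested under these conditions; 0.46% (about 300) showed 50% or more at least once.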

Values are the deposited “Percent Effect”, in %.
The record does not define 0% and 100%; most values in the screen are far below 50% and negative numbers occur (in some assays of this library far below -100).
Compounds were drawn at random from those tested, without regard to their results.
A dash means the value is not listed here; it may have been measured.

| # | structure | A | B |
|---|---|---|---|
| 1 | `COc1c(CNCc2ccc(OCC(N)=O)cc2)c(C)nn1C` | -13.84 | -3.094 |
| 2 | `CCc1ccc(CNC(=O)NC2CCCc3c2cnn3CCO)s1` (stereo not drawn) | 3.124 | -16.76 |
| 3 | `CC(O)CN1CCC(CN(C)Cc2ccc(C#N)cc2)CC1` (stereo not drawn) | -3.133 | -31.93 |
| 4 | `CCOCC1CC2(CCN(C(=O)c3ccccc3F)CC2)CO1` (stereo not drawn) | -0.4126 | -7.143 |
| 5 | `Cc1cnc(C(=O)N2CC(=O)N(c3ccccc3Cl)CC2C)cn1` (stereo not drawn) | -6.767 | -24.61 |
| 6 | `NC(=O)c1c(NC(=O)CCC(=O)O)sc2c1CCc1ccccc1-2` | -3.362 | 5.661 |
| 7 | `C1CC(CN2CCO[C@H]3[C@H](OCC4CC4)CC[C@@H]32)CCO1` | 0.4399 | -5.409 |
| 8 | `O=C1CC[C@H]2CN(Cc3cccnc3)CC[C@H]2N1CCc1c[nH]cn1` | -19.01 | -28.89 |
| 9 | `Cc1cccn2cc(CN3CCCC(c4ccn[nH]4)C3)nc12` (stereo not drawn) | 10.58 | -41.72 |
| 10 | `c1coc(-c2nc(CNCCn3cccn3)cs2)c1` | -26.51 | 12.38 |
| 11 | `COCc1noc(C2(c3ccc(Cl)cc3)CCOCC2)n1` | -14.29 | - |
| 12 | `O=C(NCc1nnc2n1C(C(=O)NC1CC1)CC2)c1ccc(Cl)cc1Cl` (stereo not drawn) | -15.46 | -10.15 |
| 13 | `Cc1ccc2c(c1)Oc1ncccc1C(=O)N2` | 12.2 | -10.46 |
| 14 | `CCC(C)N(Cc1sccc1C)C(=O)c1ccc(S(C)(=O)=O)cc1` (stereo not drawn) | -17.2 | -32 |
| 15 | `c1ccc(CN2CCc3c(COCC4CC4)cncc3C2)nc1` | -5.74 | -17.91 |
| 16 | `COc1cc(CN2CC[C@@]3(CCCO3)[C@@H](O)C2)ccc1F` | 7.189 | -45.39 |
| 17 | `Cc1cccc(C2CCCCN2C(=O)CCCS(C)(=O)=O)c1C` (stereo not drawn) | -3.438 | -32.87 |
| 18 | `O=C1[C@H]2CC[C@H](CN(Cc3nnc(C4CC4)o3)C2)N1Cc1cscn1` | 15.46 | 3.8 |
| 19 | `CC(C)C(Sc1cccs1)C(=O)NCc1cccnc1` (stereo not drawn) | -5.662 | -14.33 |
| 20 | `Cn1cc(C(=O)N2CCCN(C3Cc4ccccc4C3)CC2)cn1` | 3.735 | -34.1 |
| 21 | `O=C(CN(Cc1cccnc1)CC1CCCO1)Nc1ccc(F)cc1` (stereo not drawn) | -14.32 | -13.61 |
| 22 | `CCn1c(CN(C)C)nnc1C1CCN(Cc2ccccc2)CC1` | -5.405 | -12.87 |
| 23 | `Cc1cc(C)c2[nH]c(C(=O)NCCN3CCOC3=O)c(C)c2c1` | -6.567 | -20.39 |
| 24 | `COc1ccccc1Oc1cncc(C2CCCN(C)C2)n1` (stereo not drawn) | -16.72 | 0.4328 |
| 25 | `Cc1cnc(C(=O)N2CCCC(n3cncn3)C2)cn1` (stereo not drawn) | -3.787 | -10.19 |
| 26 | `O=C1CN(C(=O)CCn2c(C(F)(F)F)cc3cccnc32)CCN1` | -11.82 | 11.1 |
| 27 | `Cc1csc(C2(NCC(O)COc3ccc(F)cc3)CCC2)n1` (stereo not drawn) | 6.738 | -2.622 |
| 28 | `COc1ccnc(NC(=O)c2ccsc2)c1` | 4.72 | -17.52 |
| 29 | `CN(Cc1ccc(Cl)s1)C1CCCN(c2cccnn2)C1` (stereo not drawn) | 7.682 | -27.84 |
| 30 | `c1cc(CO[C@@H]2CC[C@H]3[C@H]2OCCN3Cc2ccoc2)ccn1` | 8.348 | -22.09 |
| 31 | `Cc1nc(C)n(CC2CCCN2Cc2nc(N)c3ccccc3n2)n1` (stereo not drawn) | 8.431 | -16.85 |
| 32 | `COc1cccc2c1ccn2CC(=O)Nc1nc[nH]n1` | -23.24 | -5.189 |
| 33 | `CCS(=O)(=O)N1C[C@@H]2CN(Cc3ccco3)CCO[C@@H]2C1` | 2.675 | -0.2604 |
| 34 | `Cc1cn2c(n1)C(CNCc1cnn3ccccc13)CCC2` (stereo not drawn) | -13.15 | 11.3 |
| 35 | `CCn1nc(C)c2nc(C(C)C)nc(NCCCn3ccnc3)c21` | 9.925 | -75.93 |
| 36 | `Cc1n[nH]c(C)c1CCC(=O)N1CCC(O)(CN2CCOCC2)C1` (stereo not drawn) | -19.17 | -2.045 |
| 37 | `O=C(NCCCO)Nc1cccc(C[S+]([O-])c2ccccc2)c1` (stereo not drawn) | -5.698 | -26.62 |
| 38 | `COc1ccc(C(=O)Nc2cnn(CC(=O)NC3CCCC3)c2)c(O)c1` | -0.5649 | -13.74 |
| 39 | `CCC(CC)CN1CCN(CC(=O)Nc2cccc3nsnc23)CC1` | 2.508 | -3.637 |
| 40 | `CC(=O)N[C@@H]1CN(C(=O)c2csc(C(C)C)n2)C[C@H]1C(C)C` | 6.081 | -6.635 |
| 41 | `Cn1cc(CCC(=O)N2CCN(Cc3ccncc3)CC2)cn1` | 5.606 | -4.392 |
| 42 | `Cc1ccc(CN(CCCn2ccnc2)Cc2cccs2)s1` | 7.639 | -64.39 |
| 43 | `Cc1ccc2c(c1)OC(C)CN2C(=O)c1c[nH]c(C)cc1=O` (stereo not drawn) | -8.075 | -7.786 |
| 44 | `COc1ccc(N(C(=O)c2ccc(C)nc2)C(C)C)cc1F` | 12.97 | -1.383 |
| 45 | `O=C(c1cscn1)N1CC[C@@H]2[C@@H]1CCN2C1CCOCC1` | 3.759 | 3.777 |
| 46 | `Cc1ccccc1CN(CCN(C)C)Cc1ccc(S(C)(=O)=O)cc1` | -4.762 | -28.88 |
| 47 | `O=S(=O)(Cc1ccc(F)cc1F)NCCOc1cccnc1` | -12.53 | -14.87 |
| 48 | `c1cn(CCn2cnnc2)c(-c2cc3n(n2)CCCNC3)n1` | -14.76 | -29.61 |
| 49 | `OCC1CN(Cc2nc(C(F)(F)F)cs2)c2ccccc2O1` (stereo not drawn) | 5.171 | -19.03 |
| 50 | `O=C(Cc1ccsc1)N1CCC(n2nc(-c3ccco3)ccc2=O)CC1` | -10.05 | -29.86 |
| 51 | `Cc1oc(-c2ccc(Cl)cc2)nc1C(=O)NC1=NCCS1` | 15.84 | -22.25 |
| 52 | `O=c1ccn([C@H]2CCN(Cc3ncc[nH]3)CC[C@@H]2O)c(=O)[nH]1` | -10.66 | 3.033 |
| 53 | `CNC(=O)CC1CCN(C(=O)NCC2(c3ccccc3F)CC2)CC1` | -5.38 | 1.211 |
| 54 | `CC(C)c1nc(C2CCCN2C(=O)c2ccc3nncn3c2)no1` (stereo not drawn) | -4.036 | -27.76 |
| 55 | `Cc1nn(C)c2c(NCc3ccccn3)nc(C(C)C)nc12` | -1.56 | 0.7125 |
| 56 | `Cc1ccc(C(=O)N2CCN(CC(O)c3ccc(F)cc3)CC2)s1` (stereo not drawn) | 15.84 | -6.525 |
| 57 | `Cn1ccnc1CN1CCC2(CC1)Cc1ccccc1CNC2=O` | 1.952 | -2.177 |
| 58 | `CCN1CCCC12CCN(Cc1cccnc1OC)CC2` | -7.445 | -1.432 |